The list shows a part of the results.
B1: il2ra_site1_1z92_sap_15_mot_HHH_b1_04602_000000153_0001_1_19_H_._HHH_b2_06740_0001_0000300030_0000001_0_0001 (protein)
chain: TLAELLREELEEDPRFEEELARMVLEDAGGDPRMAKKFLKRMARKAGIPPEVLERLEEIVEELVR
B2: il2ra_site1_1z92_sap_21_mot_HHH_b1_08214_000000261_0001_20_36_H_._HHH_b1_00191_0001_0000100004_0000001_0_0001_af2pred_0001_af2pred (protein)
chain: SSSSDERLKRSLRIAVENAVKVAGLSEEQKEELEELAEELAERGVDFLEALQIVNELALELSSSS
B3: il2ra_site1_3nfp_normal_mot_HHH_b1_05099_af2_000000125_0001_40_58_H_._4a27984d7eb86086e033fe6076e0d033_0001_1_0001_0000400024_0000001_0 (protein)
chain: SARKLLRKLKELGVLSPEELQLIYRVLREAIRNKDPELARELLELLELAEEGDPEAEERLRELLR
B4: il2ra_site2_3nfp_normal_mot_HHH_b2_08245_000000023_0001_41_55_H_._72a79b14e1a0e827e78e129a6f5f8f0c_0001_1_0001_0000100007_0000001_0 (protein)
chain: DAELSNRIYELAERGDPVAFLLFALLAEVLYKGDPELRRLLEEALEALERGNPEEAEEIVKEALR
B5: il2ra_site1_2b5i_normal_mot_HHH_b2_07267_000000116_0001_43_56_H_._2c3364830c66fee1b0e8427e812e8af0_0001_af2_0001_0000300012_0000001_0 (protein)
chain: DEEHLERLLRIALELGNIERYAKHLFRMLAIAAGDPEEAEEYLEKLLEAAGVPPEVIEEILKEAK
B6: il2ra_site1_2b5i_sap_8_mot_HHH_b2_04131_000000150_0001_1_16_H_._HHH_b2_08022_af2_0001_0000200019_0000001_0_0001_af2pred_dldesign_0_af2pred (protein)
chain: SSSSSAAEPRALFLKAEEAHKAGKDEEALELLKKALELAEARKMHSLARAIELAIKDLLESSSSS
B7: il2ra_site1_3nfp_normal_mot_HHH_b1_01080_af2_000000019_0001_3_16_H_._3b61d7363a4279ee81a7dec5202e1ad9_0001_0001_0000200011_0000001_0 (protein)
chain: NFVERLIEEIEKRDEELSKLLREVLELAEKKQDPRLFELLIKALALIELGNPEEAKKLLEEAAKR
B8: il2ra_site2_2erj_normal_mot_HHH_b1_01851_000000011_0001_43_56_H_._HHH_b1_04282_0001_0000200018_0000001_0 (protein)
chain: SSSSDEEEERIEELAEEAKQITDLRRVFELANEMLRIASERRDQELVELVIELLEEIFELNSSSS
B9: il2ra_site1_3nfp_sap_15_mot_eb5a5eebac1e5153f932cc6c3f4b2787_0001_af2_000000065_0001_18_33_H_._208e20f37e868f9baeee1912733167ef_0001_af2_0001_0000500015_0000001 … (protein)
chain: SSSSSLEKLFEIFEKAARLFLEQGNPEAAKRLVEAAIEDARKAGDEELLELLEELLEEVRRSSSS
B10: il2ra_site2_2erj_normal_mot_HHH_b1_01555_af2_000000123_0001_22_39_H_._HHH_b2_00121_af2_0001_0000200012_0000001_0 (protein)
chain: SSSSSEEEVREVLKEAEEAYKEGDLEAVFELLDEALHLASENNDDEAERLVFEFVEELQNWSSSS
B11: il2ra_site2_3nfp_sap_14_mot_3824cfb560b92ee870597236e80092b0_0001_000000100_0001_16_33_H_._12b039b53749288c6b85c509ede14276_0001_af2_0001_0000300012_0000001_0_0 … (protein)
chain: SSSSDVEERVEELLERAEELYEKGNPREVKRILAEASRLAWENNNEELFMKIAEAALRLFSSSSS
B12: il2ra_site1_3nfp_normal_mot_HHH_b1_05070_af2_000000282_0001_43_57_H_._HHH_b2_01397_af2_0001_0000200011_0000001_0_af2pred_0001_af2pred_swapped (protein)
chain: SSSSNAIELFERLVRRVVELLKKRGDPEAAERFVERAIRDAEKAGDEELVRRLEELLEEIRSSSS
B13: il2ra_site1_2b5i_normal_mot_HHH_b2_04910_000000118_0001_1_19_H_._HHH_b2_07342_0001_0000200023_0000001_1 (protein)
chain: SSSSSEEALELFHRADEADREGDHEEAQELAEEALEIAERENSKSLFRMIRAALRAIRLAGSSSS
B14: il2ra_site2_2erj_normal_mot_HHH_b2_01204_af2_000000056_0001_19_34_H_._HHH_b1_02574_af2_0001_0002000032_0000001_0 (protein)
chain: SSSSSEELRELYELLVEILHAITNGDKEEAEKLLERVEELAEKLQSESVREVVEFLEKLLRSSSS
B15: il2ra_site2_2erj_normal_mot_HHH_b1_07584_000000201_0001_42_55_H_._HHH_b2_01788_af2_0001_0000100002_0000001_0_af2pred_0001_af2pred (protein)
chain: SSSSSEEEEEAEKLAAEAKELALRGNPEEAREVLEKAEELAKEANNPELLKLLELSFRFAESSSS
B16: il2ra_site2_2erj_normal_mot_HHH_b2_07568_000000046_0001_18_34_H_._HHH_b2_00706_0001_0000500045_0000001_0 (protein)
chain: SSSSDVEELLERVEELIEQGNVEEAWEVLREASERVFRLDDPELFRLLIELFERLQELELSSSSS
B17: il2ra_site2_3nfp_normal_mot_HHH_b1_04370_000000117_0001_1_20_H_._HHH_b2_02124_0001_0000300015_0000001_0_af2pred_0001_af2pred (protein)
chain: SSSSDEEYELRFVEYLAELAIEHTSDEEEREELEELLEELREKGDPRIARELAQIAAEILLSSSS
B18: il2ra_site1_2b5i_sap_12_mot_e4f16f412d24973e63efe4e4a8bb3ce7_0001_1_af2_000000118_0001_1_13_H_._HHH_b1_01857_0001_0000600025_0000001_0_0001_af2pred_0001_af2pred … (protein)
chain: SSSSDEEFHEVLQLFREASELYRRGNKEEARELLERALKIAEELGDKVAFEDVRRYLEKASSSSS
B19: il2ra_site1_3nfp_sap_18_mot_18aa8fce457275efd5553655b25e0e68_0001_1_000000138_0001_38_52_H_._aff62e40800cfbf30c5099bd910ef069_0001_0001_0000200013_0000001_0_000 … (protein)
chain: NAAKLLQRLMRLGVLSPEELQAIFKVLAEALRNKDPELDHELMELLELADKGDPEAEEALRELLR

Each binder was assayed against il2ra, P01589 (assay: yeast display titration).

Apparent Kd, inactive:
B1 no binding seen
B2 no binding seen
B3 no binding seen
B4 no binding seen
B5 no binding seen
B6 no binding seen
B7 no binding seen
B8 no binding seen
B9 no binding seen
B10 no binding seen
B11 no binding seen
B12 no binding seen
B13 no binding seen
B14 no binding seen
B15 no binding seen
B16 no binding seen
B17 no binding seen
B18 no binding seen
B19 no binding seen
